Results: the supplement of paper PMC8728848
The list shows a part of the results.

Legend:
Test in all cases: glycan array binding signal (z-score within array); higher = stronger binding
Details in all cases: glycan notation: IUPAC condensed, linker removed
[1] = target: Neu5Ac(a2-3)Gal6S(b1-4)[Fuc(a1-3)]GlcNAc
Method in brief: (§1)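 Glycan array data came from 3228 arrays in the Consortium for Functional Glycomics database, and only arrays with an available protein sequence were kept. Glycan names were put into IUPAC-condensed notation, and columns mapping to the same glycan were averaged. The binding signal is a within-array Z-score, averaged across arrays of one protein sequence run at different concentrations or buffers and across linkers. A negative Z-score can be read as non-binding.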

Neu5Ac(a2-3)GalNAc = target: Neu5Ac(a2-3)GalNAc
Method in brief: as §1

[2] = target: Neu5Ac(a2-3)GalNAc(b1-4)GlcNAc
Method in brief: as §1

[3] = target: Neu5Ac(a2-3)[GalNAc(b1-4)]Gal(b1-4)Glc
Method in brief: as §1

[4] = target: Neu5Ac(a2-3)[GalNAc(b1-4)]Gal(b1-4)GlcNAc
Method in brief: as §1

[5] = target: Neu5Ac(a2-3)[GalNAc(b1-4)]Gal(b1-4)GlcNAc(b1-3)GalNAc
Method in brief: as §1

[6] = target: Neu5Ac(a2-3)[Neu5Ac(a2-6)]GalNAc
Method in brief: as §1

Neu5Ac(a2-6)Gal = target: Neu5Ac(a2-6)Gal
Method in brief: as §1

Neu5Ac(a2-6)Gal(b1-4)Glc = target: Neu5Ac(a2-6)Gal(b1-4)Glc
Method in brief: as §1

[7] = target: Neu5Ac(a2-6)Gal(b1-4)GlcNAc
Method in brief: as §1

[8] = target: Neu5Ac(a2-6)Gal(b1-4)GlcNAc(b1-2)Man(a1-3)Man(b1-4)GlcNAc(b1-4)GlcNAc
Method in brief: as §1

[9] = target: Neu5Ac(a2-6)Gal(b1-4)GlcNAc(b1-2)Man(a1-3)[Gal(b1-4)GlcNAc(b1-2)Man(a1-6)]Man(b1-4)GlcNAc(b1-4)GlcNAc
Method in brief: as §1

[10] = target: Neu5Ac(a2-6)Gal(b1-4)GlcNAc(b1-2)Man(a1-3)[GlcNAc(b1-2)Man(a1-6)]Man(b1-4)GlcNAc(b1-4)GlcNAc
Method in brief: as §1

[11] = target: Neu5Ac(a2-6)Gal(b1-4)GlcNAc(b1-2)Man(a1-3)[GlcNAc(b1-2)Man(b1-4)GlcNAc(b1-2)Man(a1-6)]Man(b1-4)GlcNAc(b1-4)GlcNAc
Method in brief: as §1

[12] = target: Neu5Ac(a2-6)Gal(b1-4)GlcNAc(b1-2)Man(a1-3)[Man(a1-6)]Man(b1-4)GlcNAc(b1-4)GlcNAc
Method in brief: as §1

[13] = target: Neu5Ac(a2-6)Gal(b1-4)GlcNAc(b1-2)Man(a1-3)[Neu5Ac(a2-6)Gal(b1-4)GlcNAc(b1-2)Man(a1-6)]Man(b1-4)GlcNAc(b1-4)GlcNAc
Method in brief: as §1

[14] = target: Neu5Ac(a2-6)Gal(b1-4)GlcNAc(b1-2)Man(a1-6)Man(b1-4)GlcNAc(b1-4)GlcNAc
Method in brief: as §1

[15] = target: Neu5Ac(a2-6)Gal(b1-4)GlcNAc(b1-2)Man(a1-6)[Gal(b1-4)GlcNAc(b1-2)Man(a1-3)]Man(b1-4)GlcNAc(b1-4)GlcNAc
Method in brief: as §1

[16] = target: Neu5Ac(a2-6)Gal(b1-4)GlcNAc(b1-2)Man(a1-6)[GlcNAc(b1-2)Man(a1-3)]Man(b1-4)GlcNAc(b1-4)GlcNAc
Method in brief: as §1

[17] = target: Neu5Ac(a2-6)Gal(b1-4)GlcNAc(b1-2)Man(a1-6)[Man(a1-3)]Man(b1-4)GlcNAc(b1-4)GlcNAc
Method in brief: as §1

[18] = target: Neu5Ac(a2-6)Gal(b1-4)GlcNAc(b1-3)Gal(b1-3)GlcNAc
Method in brief: as §1

[19] = target: Neu5Ac(a2-6)Gal(b1-4)GlcNAc(b1-3)Gal(b1-4)GlcNAc
Method in brief: as §1

[20] = target: Neu5Ac(a2-6)Gal(b1-4)GlcNAc(b1-3)Gal(b1-4)GlcNAc(b1-3)Gal(b1-4)GlcNAc
Method in brief: as §1

[21] = target: Neu5Ac(a2-6)Gal(b1-4)GlcNAc(b1-3)Gal(b1-4)[Fuc(a1-3)]GlcNAc(b1-3)Gal(b1-4)[Fuc(a1-3)]GlcNAc
Method in brief: as §1

[22] = target: Neu5Ac(a2-6)Gal(b1-4)GlcNAc(b1-3)GalNAc
Method in brief: as §1

[23] = target: Neu5Ac(a2-6)Gal(b1-4)GlcNAc6S
Method in brief: as §1

Neu5Ac(a2-6)GalNAc = target: Neu5Ac(a2-6)GalNAc
Method in brief: as §1

[24] = target: Neu5Ac(a2-6)GalNAc(b1-4)GlcNAc
Method in brief: as §1

[25] = target: Neu5Ac(a2-6)GlcNAc(b1-4)GlcNAc
Method in brief: as §1

[26] = target: Neu5Ac(a2-6)GlcNAc(b1-4)GlcNAc(b1-4)GlcNAc
Method in brief: as §1

B1: LERP (Drosophila melanogaster), B7Z0Q8 (protein)
chain: MRCSLQKDCAAPTQENFRQMRFPIVISLLLLLFCSGESVAADAANQLKFSTTECKLKEPIYGSTFDFSGLHSDLAHVVKSMNIGGDQFEFNICGNLSRTCNGESNVAACLKRQGKEYILGRQHELFYNNGNMFLKYKSGAKCDNGTADKPNYQLHVMFSCDYTLDAQPMHVTPYANEVCSFYISYRTPLACLSIPEGLQSNSCRVGDTKSNGTFDLMPLSDSNYHTSNRQGAFFVINVCKPVLYGENSMCPAGSSVCLFDSKATNPKERFINFGNVQTHPVVEKGQLLLRHESPTPCAKNSSANYTSVIYFSCDKFIRNAHPEFAGLGADSCTYQFNFATPLACNDLKPCTAFTSTNELLDLSSLSSKPARTLLKDGKNYTIAVCAHAGAPCQENGGACYEQNSTTISLGNSNSQLRFNQTGSLYLLYEDGAECSTATGMRRWSTKIEFVCANNATKDNGASTAGGSDSLKIIEDSNCQLLIQYQTPLACREPIRCKATTYVDHTNDGLGSSGDELIDLTPLISATDNYEARVELPASMEHLVPKTTKFFLNVCRPLVPKYQLGCAGGSAACMAKVTAAGAPEEERSMGFPLVSLTQRNRTFAELAYLKGDPCPTDNTSELSTHILFNCNMRAGRGQPVLRSVEDCAYRFEWETNVFCPPHECTFSADTCDLVHDELGRRFNFKSAPFTKDGKIEIDYNATKMSVNICGAHRKAMTDYSQALVNIFFTHESPNCGREGTMNVQIRLICSDQTESSSTISSDQQCNLLYVQRTPSICEFLSLGATQQNFESNGSTSSSTSSSSTSTTTSTTTQASPAGKPTKAATSTTTTTVGPDPAATPIGPTASVGTILGAILSVTFCVTCLGLLAFSPARRQRIRRLFRRSNSAVRYSRVQSNEEANLLLEPNGEFTESDDDMLL
Q: Which “glycan array binding signal (z-score)” value [1] does the source give for B1 here?
A: Its value is 0.319.

Q: And the “glycan array binding signal (z-score)” value (Neu5Ac(a2-3)GalNAc)?
A: Its value is 0.609.

Q: What about the “glycan array binding signal (z-score)” value [2] of the same binder?
A: The value was 0.544.

Q: What about the “glycan array binding signal (z-score)” value [3] of the same binder?
A: The value was -0.06.

Q: What about the “glycan array binding signal (z-score)” value [4] of the same binder?
A: Its value is -0.271.

Q: And the “glycan array binding signal (z-score)” value [5]?
A: The value was -0.344.

Q: And the “glycan array binding signal (z-score)” value [6]?
A: The value was 0.339.

Q: And the “glycan array binding signal (z-score)” value (Neu5Ac(a2-6)Gal)?
A: Its value is 0.042.

Q: And the “glycan array binding signal (z-score)” value (Neu5Ac(a2-6)Gal(b1-4)Glc)?
A: Its value is 0.348.

Q: What about the “glycan array binding signal (z-score)” value [7] of the same binder?
A: The value was -0.434.

Q: What about the “glycan array binding signal (z-score)” value [8] of the same binder?
A: Its value is 0.87.

Q: What about the “glycan array binding signal (z-score)” value [9] of the same binder?
A: Its value is 1.42.

Q: What about the “glycan array binding signal (z-score)” value [10] of the same binder?
A: Its value is -0.535.

Q: What about the “glycan array binding signal (z-score)” value [11] of the same binder?
A: The value was -0.443.

Q: And the “glycan array binding signal (z-score)” value [12]?
A: Its value is 2.27.

Q: What about the “glycan array binding signal (z-score)” value [13] of the same binder?
A: Its value is 0.108.

Q: What about the “glycan array binding signal (z-score)” value [14] of the same binder?
A: The value was 0.432.

Q: And the “glycan array binding signal (z-score)” value [15]?
A: Its value is 0.337.

Q: What about the “glycan array binding signal (z-score)” value [16] of the same binder?
A: The value was 2.42.

Q: What about the “glycan array binding signal (z-score)” value [17] of the same binder?
A: The value was 2.27.

Q: And the “glycan array binding signal (z-score)” value [18]?
A: Its value is -0.533.

Q: What about the “glycan array binding signal (z-score)” value [19] of the same binder?
A: The value was -0.658.

Q: And the “glycan array binding signal (z-score)” value [20]?
A: Its value is 0.666.

Q: What about the “glycan array binding signal (z-score)” value [21] of the same binder?
A: The value was -0.095.

Q: And the “glycan array binding signal (z-score)” value [22]?
A: Its value is 1.7.

Q: And the “glycan array binding signal (z-score)” value [23]?
A: The value was -0.446.

Q: What about the “glycan array binding signal (z-score)” value (Neu5Ac(a2-6)GalNAc) of the same binder?
A: Its value is -0.369.

Q: And the “glycan array binding signal (z-score)” value [24]?
A: The value was -0.224.

Q: What about the “glycan array binding signal (z-score)” value [25] of the same binder?
A: Its value is -1.1.

Q: What about the “glycan array binding signal (z-score)” value [26] of the same binder?
A: The value was -0.509.
